# Library screen at single concentrations

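Assay of Toxoplasma gondii numbers, read through their beta-galactosidase reporter with a colour substrate. Tested at 50 µM. The record gives no direction; the compounds picked for IC50 retests had high values, so higher reads as fewer parasites. About 18,000 compounds were tested under these conditions; 0.94% (about 170) showed 50% or more at least once.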

Results are given as percent effect. The controls that fix the scale are not given in the record; negative values are as filed. This is an unselected part of the compounds tested.

| # | Compound | percent effect |
|---|---|---|
| 1 | `CN1CCN(C(=O)c2cc(-c3cccs3)on2)CC1` | -4.328% |
| 2 | `NCC1CN(Cc2ccccc2)CCO1` (centres undefined) | -6.86% |
| 3 | `CS(=O)(=O)CC[S+]([O-])CCCc1ccc(Cl)cc1` (centres undefined) | -1.299% |
| 4 | `Cc1ccc(F)cc1C(=O)N(C)c1ncccc1C#N` | 2.117% |
| 5 | `COC(=O)c1ccc(NCC(=O)N2CCCCC2)cc1` | -5.615% |
| 6 | `COc1cc(CCN)c(SC)cc1OC` | -7.886% |
| 7 | `CCOC(=O)c1cnc(SC2CCOC2=O)nc1N` (centres undefined) | -3.387% |
| 8 | `Cn1cc(C(N)=O)c(C(F)F)n1` | -9.653% |
| 9 | `O=C1/C(=C\c2cccnc2)Oc2cc(O)ccc21` | -2.801% |
| 10 | `Cc1ccc(C(=O)N2CCOCC2)cc1NS(C)(=O)=O` | 6.825% |
| 11 | `NCCc1nsc2ccccc12` | -0.1449% |
| 12 | `CCN(C(=O)CSc1nncs1)C1CCS(=O)(=O)C1` (centres undefined) | 6.194% |
| 13 | `COc1ccc(CCN)cc1F` | -2.522% |
| 14 | `COc1cc(C)ccc1OC(C)C(=O)NC(N)=O` (centres undefined) | -14.45% |
| 15 | `CCn1ncnc1CNC(=O)Cn1nc(C)c(Cl)c1C` | -2.122% |
| 16 | `CS(=O)(=O)CCC(=O)NCCNC(=O)c1ccccc1` | 12.25% |
| 17 | `CN1CCCN(C(=O)COc2ccc(Br)cc2)CC1` | 68.33% |
| 18 | `CCN(CC)C(=O)Cn1nc(C)c(C#N)c1N` | 2.356% |
| 19 | `O=C(c1cc(C2CC2)on1)N1CC(O)(C2CC2)C1` | 4.98% |
| 20 | `Cc1nc(C)c(C(=O)NC[C@@H]2C[C@H](F)CN2)s1` | -19.66% |
| 21 | `CCN(C(=O)c1cccnc1)C1CC1` | 16.89% |
| 22 | `Cc1cc(F)cc(C(=O)N[C@H](CO)C(C)C)c1` | -1.756% |
| 23 | `Cc1cc(F)cc(NC(=O)NC[C@@H]2CCCN2)c1` | 21.68% |
| 24 | `CC(C(=O)N1CCCC1)N(C)CCN1CCCC1` (centres undefined) | -2.714% |
| 25 | `Cc1cc(N2CCC(NS(C)(=O)=O)CC2)nc(C)n1` | -1.407% |
| 26 | `Cc1cc(F)ccc1S(=O)(=O)N1CCC(O)CC1` | -7.053% |
| 27 | `Cc1nc(CO)c2ccccn12` | -15.12% |
| 28 | `O=C(c1cccc(C(F)(F)F)c1)N1CCC(O)CC1` | -7.886% |
| 29 | `Cc1ccnc2nc(C(=O)NC(C#N)CC(C)C)nn12` (centres undefined) | -25.69% |
| 30 | `O=C(Nc1cccc(Cl)c1)C1CCCN1` (centres undefined) | 1.928% |
| 31 | `Cc1ccn(Cc2cccc(C(=O)N(C)C)c2)c(=O)c1` | 2.451% |
| 32 | `O=C(Nc1nncs1)N1CCN(Cc2ccsc2)CC1` | -13.62% |
| 33 | `OCCOC1CCCN(Cc2ccc(F)cc2F)C1` (centres undefined) | -2.101% |
| 34 | `CNC(=O)[C@@H](C)Nc1ccc(C(F)(F)F)cn1` | -11.72% |
| 35 | `CN(CCSc1nnc[nH]1)c1ccccc1` | -2.523% |
| 36 | `Cc1cscc1-c1cccc(C(=O)N(C)C)n1` | 0.4265% |
| 37 | `CN1CCC(CN(C)S(=O)(=O)c2ccccc2)CC1` | -9.67% |
| 38 | `C1COC2(CCN(Cc3nnnn3C3CC3)CC2)O1` | 0.3293% |
| 39 | `COC(C)(C)CNc1ccc(OC(F)F)cn1` | 11.25% |
| 40 | `CCNC(=O)C(CCSC)NC(=O)Cc1ccccc1` (centres undefined) | -19.57% |
| 41 | `Cc1n[nH]cc1CNCCCN1CCCCCC1=O` | 13.38% |
| 42 | `Cc1ccc(F)cc1C(=O)NC1CCCNC1` (centres undefined) | 83.09% |
| 43 | `COc1ccc(CCN)c(O)c1` | -18.29% |
| 44 | `COCCN(C)CCCNC(=O)c1cc(C2CC2)[nH]n1` | -8.237% |
| 45 | `CCS(=O)(=O)N1CCCC(c2ncc[nH]2)C1` (centres undefined) | -4.468% |
| 46 | `NC(=O)Cc1ccncc1` | 8.419% |
| 47 | `CN(CCC(C)(C)O)C(=O)c1ccc(N)nc1` | -0.9601% |
| 48 | `Cc1cnn(CC(C)NCCn2cncn2)c1` (centres undefined) | 19.29% |
| 49 | `CCS(=O)(=O)c1cc(Cl)cc(CO)c1` | -5.666% |
| 50 | `CCNCc1cc(OC)c(OCC(N)=O)c(OC)c1` | -13.84% |
| 51 | `CN(CCCOc1ccc(S(C)(=O)=O)cc1)CC(N)=O` | -6.946% |
| 52 | `CC1(C2CCCN(C(=O)NCCCF)C2)OCCO1` (centres undefined) | -5.109% |
| 53 | `COc1cc(C)cc(C(=O)NCc2ncc[nH]2)c1O` | -10.85% |

Some entries from above, unchanged:

{"compound": "CN1CCCN(C(=O)COc2ccc(Br)cc2)CC1", "percent effect": 68.33}
{"compound": "CC1(C2CCCN(C(=O)NCCCF)C2)OCCO1", "stereo": "centres undefined", "percent effect": -5.109}
{"compound": "CCNCc1cc(OC)c(OCC(N)=O)c(OC)c1", "percent effect": -13.84}
{"compound": "CC(C(=O)N1CCCC1)N(C)CCN1CCCC1", "stereo": "centres undefined", "percent effect": -2.714}
{"compound": "COc1ccc(CCN)c(O)c1", "percent effect": -18.29}

Source: ChEMBL document CHEMBL3988442, “University of Dundee, Small-Polar-MMV Screening Library” (2021).